Experimental data as given in the supplement of paper PMC10849652.
Some of the results follow.

Sequences of proteins named here, by UniProt entry; tags and fusion partners are left off. A change or cut given only in a name is not applied to a line headed by its entry.
UniProt P35580, whole entry, looked up: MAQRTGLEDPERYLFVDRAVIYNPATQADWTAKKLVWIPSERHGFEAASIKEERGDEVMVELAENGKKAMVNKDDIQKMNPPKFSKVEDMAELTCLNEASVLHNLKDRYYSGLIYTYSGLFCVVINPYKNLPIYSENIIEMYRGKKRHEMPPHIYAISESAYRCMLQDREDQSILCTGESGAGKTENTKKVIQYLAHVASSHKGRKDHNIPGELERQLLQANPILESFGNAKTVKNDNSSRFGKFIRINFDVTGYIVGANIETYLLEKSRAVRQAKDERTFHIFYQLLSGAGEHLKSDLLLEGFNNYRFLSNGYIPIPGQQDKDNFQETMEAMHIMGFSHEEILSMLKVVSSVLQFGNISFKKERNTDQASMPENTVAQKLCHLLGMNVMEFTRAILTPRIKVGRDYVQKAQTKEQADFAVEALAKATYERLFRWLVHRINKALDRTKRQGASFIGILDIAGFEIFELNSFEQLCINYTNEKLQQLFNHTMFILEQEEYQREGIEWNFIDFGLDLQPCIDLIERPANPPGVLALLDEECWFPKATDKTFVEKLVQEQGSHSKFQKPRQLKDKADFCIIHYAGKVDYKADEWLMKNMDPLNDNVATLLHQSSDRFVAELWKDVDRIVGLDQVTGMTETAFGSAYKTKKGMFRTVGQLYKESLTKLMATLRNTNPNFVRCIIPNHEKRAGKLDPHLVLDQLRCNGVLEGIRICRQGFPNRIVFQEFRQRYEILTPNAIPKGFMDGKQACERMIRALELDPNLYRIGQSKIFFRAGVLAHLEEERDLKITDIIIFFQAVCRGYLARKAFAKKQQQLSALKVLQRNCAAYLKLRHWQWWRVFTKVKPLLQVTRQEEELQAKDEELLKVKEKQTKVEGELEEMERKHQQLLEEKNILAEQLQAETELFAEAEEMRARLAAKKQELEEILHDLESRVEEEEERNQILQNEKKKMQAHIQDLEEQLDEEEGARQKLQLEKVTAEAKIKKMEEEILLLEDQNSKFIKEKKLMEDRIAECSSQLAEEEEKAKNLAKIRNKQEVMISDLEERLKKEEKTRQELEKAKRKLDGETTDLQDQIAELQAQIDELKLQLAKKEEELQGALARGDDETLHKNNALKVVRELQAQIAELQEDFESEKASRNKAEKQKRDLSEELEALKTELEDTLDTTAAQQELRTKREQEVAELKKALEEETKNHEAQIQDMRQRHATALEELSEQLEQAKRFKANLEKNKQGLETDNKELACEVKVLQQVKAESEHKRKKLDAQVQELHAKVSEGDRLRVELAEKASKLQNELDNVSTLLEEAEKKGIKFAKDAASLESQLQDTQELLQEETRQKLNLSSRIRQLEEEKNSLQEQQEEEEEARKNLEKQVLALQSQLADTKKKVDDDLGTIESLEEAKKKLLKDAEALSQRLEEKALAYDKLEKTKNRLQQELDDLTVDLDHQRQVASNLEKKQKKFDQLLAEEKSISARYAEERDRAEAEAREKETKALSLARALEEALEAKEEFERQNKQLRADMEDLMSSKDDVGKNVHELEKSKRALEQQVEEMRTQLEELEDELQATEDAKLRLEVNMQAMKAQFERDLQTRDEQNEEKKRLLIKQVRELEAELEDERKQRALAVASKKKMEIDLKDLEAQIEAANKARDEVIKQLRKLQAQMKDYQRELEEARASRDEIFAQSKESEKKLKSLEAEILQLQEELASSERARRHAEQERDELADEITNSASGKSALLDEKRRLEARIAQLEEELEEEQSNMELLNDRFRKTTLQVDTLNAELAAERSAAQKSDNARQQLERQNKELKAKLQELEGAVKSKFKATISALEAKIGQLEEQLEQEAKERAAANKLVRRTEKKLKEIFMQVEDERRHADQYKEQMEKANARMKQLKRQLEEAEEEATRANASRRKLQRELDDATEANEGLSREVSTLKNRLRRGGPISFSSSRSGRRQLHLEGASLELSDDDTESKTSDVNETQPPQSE
UniProt Q9UJ70, whole entry, looked up: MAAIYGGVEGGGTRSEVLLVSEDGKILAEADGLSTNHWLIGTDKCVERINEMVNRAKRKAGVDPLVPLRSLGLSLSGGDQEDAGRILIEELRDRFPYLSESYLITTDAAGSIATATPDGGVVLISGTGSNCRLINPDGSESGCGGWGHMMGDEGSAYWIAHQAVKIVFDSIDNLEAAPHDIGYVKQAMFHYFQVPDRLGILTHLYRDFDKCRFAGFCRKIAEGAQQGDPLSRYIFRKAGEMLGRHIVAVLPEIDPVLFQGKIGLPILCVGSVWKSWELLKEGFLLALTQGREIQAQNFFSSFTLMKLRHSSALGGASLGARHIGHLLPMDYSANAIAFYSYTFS
UniProt Q68D85: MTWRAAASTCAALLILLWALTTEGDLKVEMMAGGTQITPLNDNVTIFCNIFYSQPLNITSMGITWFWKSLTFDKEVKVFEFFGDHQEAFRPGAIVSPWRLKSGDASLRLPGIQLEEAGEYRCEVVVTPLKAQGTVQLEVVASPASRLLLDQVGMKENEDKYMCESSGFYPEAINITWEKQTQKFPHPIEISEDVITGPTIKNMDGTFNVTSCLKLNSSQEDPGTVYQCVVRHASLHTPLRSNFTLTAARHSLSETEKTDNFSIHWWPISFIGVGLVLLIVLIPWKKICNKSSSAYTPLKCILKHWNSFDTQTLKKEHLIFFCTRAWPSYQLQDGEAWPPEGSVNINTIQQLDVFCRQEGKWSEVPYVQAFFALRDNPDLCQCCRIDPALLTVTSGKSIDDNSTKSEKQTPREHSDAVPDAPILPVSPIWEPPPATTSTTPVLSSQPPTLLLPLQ
UniProt Q5VVJ2: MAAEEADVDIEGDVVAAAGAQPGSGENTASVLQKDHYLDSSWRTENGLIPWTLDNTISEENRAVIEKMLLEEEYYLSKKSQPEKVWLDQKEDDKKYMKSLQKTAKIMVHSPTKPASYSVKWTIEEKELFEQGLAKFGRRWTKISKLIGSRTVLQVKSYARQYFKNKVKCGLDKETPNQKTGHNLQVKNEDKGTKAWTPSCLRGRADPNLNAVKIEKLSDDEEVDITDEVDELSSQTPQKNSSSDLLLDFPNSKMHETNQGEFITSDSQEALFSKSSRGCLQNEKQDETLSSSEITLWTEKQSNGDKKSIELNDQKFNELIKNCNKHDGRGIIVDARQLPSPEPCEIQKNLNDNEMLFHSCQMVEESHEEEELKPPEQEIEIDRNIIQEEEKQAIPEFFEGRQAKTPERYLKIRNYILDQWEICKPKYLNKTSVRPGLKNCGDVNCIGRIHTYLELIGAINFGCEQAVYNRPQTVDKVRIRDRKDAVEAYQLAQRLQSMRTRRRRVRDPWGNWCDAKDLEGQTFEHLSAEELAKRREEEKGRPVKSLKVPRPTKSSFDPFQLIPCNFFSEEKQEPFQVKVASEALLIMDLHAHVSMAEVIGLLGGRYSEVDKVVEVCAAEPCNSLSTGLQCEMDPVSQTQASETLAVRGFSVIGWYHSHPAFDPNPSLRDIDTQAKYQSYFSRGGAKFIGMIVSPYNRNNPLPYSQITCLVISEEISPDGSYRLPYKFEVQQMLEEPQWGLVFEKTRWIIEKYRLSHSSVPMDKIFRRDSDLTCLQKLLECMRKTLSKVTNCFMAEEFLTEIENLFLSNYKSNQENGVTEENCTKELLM
UniProt Q96S97: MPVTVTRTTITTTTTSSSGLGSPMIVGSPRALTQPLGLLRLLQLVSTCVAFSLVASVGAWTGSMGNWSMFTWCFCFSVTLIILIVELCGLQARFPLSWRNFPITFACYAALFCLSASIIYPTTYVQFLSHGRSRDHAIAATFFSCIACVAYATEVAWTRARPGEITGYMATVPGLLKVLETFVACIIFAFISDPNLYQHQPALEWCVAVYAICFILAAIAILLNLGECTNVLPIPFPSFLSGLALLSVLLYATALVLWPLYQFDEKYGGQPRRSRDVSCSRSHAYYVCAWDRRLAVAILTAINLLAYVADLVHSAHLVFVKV
UniProt Q14CX7, whole entry, looked up: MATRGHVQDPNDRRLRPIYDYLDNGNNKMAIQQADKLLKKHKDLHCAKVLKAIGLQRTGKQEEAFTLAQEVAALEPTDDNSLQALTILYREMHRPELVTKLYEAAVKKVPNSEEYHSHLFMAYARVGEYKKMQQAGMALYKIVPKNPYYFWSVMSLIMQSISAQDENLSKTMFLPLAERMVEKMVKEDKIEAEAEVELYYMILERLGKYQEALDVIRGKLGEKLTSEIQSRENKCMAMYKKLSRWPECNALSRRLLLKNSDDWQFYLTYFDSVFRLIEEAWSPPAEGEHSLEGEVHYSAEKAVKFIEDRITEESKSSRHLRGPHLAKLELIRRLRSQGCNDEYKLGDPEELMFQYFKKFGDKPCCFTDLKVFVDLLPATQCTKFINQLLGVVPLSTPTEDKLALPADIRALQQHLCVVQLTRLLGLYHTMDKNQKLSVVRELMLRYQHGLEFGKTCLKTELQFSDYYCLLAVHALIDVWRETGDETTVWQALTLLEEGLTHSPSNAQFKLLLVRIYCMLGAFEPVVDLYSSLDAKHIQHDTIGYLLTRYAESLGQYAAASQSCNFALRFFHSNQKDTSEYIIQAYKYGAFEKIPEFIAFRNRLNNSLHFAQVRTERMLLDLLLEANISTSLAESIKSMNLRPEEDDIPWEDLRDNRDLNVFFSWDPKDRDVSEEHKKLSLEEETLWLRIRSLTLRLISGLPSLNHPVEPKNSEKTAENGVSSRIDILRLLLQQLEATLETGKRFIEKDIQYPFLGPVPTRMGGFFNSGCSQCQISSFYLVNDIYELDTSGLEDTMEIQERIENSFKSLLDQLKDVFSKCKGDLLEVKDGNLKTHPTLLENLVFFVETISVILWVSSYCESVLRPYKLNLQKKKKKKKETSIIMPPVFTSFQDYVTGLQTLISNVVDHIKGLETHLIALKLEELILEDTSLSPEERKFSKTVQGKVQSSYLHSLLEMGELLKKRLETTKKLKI
UniProt Q9H0A0: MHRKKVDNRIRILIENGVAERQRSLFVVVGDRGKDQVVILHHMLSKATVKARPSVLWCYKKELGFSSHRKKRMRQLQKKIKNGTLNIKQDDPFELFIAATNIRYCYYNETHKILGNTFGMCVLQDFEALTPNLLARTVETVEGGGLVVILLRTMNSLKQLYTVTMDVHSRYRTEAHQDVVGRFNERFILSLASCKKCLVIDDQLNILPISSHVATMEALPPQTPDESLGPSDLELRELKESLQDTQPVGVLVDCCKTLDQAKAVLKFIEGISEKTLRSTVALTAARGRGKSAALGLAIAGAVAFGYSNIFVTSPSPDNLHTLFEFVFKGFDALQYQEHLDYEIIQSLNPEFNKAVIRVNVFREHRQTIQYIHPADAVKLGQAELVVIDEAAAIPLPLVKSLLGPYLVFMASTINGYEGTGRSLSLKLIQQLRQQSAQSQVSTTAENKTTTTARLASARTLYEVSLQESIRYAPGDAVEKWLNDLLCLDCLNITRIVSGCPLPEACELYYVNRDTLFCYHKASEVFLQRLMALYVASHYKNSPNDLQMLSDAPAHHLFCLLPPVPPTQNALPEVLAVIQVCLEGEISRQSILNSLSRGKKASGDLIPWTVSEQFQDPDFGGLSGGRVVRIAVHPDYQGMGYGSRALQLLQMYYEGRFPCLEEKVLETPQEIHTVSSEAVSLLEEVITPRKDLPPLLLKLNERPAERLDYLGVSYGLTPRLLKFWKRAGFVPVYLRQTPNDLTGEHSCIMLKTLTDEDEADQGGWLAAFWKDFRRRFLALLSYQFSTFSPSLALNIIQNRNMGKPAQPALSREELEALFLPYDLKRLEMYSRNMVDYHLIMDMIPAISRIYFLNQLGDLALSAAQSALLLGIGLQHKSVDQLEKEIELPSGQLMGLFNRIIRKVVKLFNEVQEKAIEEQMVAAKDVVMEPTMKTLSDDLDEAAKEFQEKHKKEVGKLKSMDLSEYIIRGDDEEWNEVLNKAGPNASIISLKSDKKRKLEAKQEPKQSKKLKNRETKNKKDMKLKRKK
UniProt Q13772: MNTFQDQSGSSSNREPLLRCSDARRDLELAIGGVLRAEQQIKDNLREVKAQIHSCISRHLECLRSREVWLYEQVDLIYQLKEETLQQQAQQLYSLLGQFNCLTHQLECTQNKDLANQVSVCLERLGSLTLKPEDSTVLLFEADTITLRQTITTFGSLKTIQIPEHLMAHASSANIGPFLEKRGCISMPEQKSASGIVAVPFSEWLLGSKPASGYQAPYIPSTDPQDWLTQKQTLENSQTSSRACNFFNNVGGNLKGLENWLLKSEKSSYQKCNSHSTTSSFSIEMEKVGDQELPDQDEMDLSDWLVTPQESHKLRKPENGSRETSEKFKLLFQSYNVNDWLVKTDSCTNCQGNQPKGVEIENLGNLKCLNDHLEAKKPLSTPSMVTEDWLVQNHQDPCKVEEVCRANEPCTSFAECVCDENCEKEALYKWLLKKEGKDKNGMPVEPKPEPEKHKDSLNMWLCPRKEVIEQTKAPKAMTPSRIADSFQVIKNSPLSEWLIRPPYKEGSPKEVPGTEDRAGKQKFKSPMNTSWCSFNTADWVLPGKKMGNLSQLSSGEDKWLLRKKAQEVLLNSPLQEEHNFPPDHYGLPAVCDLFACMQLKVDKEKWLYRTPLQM

Columns and labels:
Test in all cases: log2 fold change, soluble protein after heating vs DMSO (PISA); higher = thermal stabilisation; K562 lysate, 10 uM; active = over 0.2 and 3.5 SD of the protein, either way, in both replicates (recomputed)
lapatinib = compound: CS(=O)(=O)CCNCc1ccc(-c2ccc3ncnc(Nc4ccc(OCc5cccc(F)c5)c(Cl)c4)c3c2)o1 [lapatinib]
Method in brief: (§1)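 Soluble protein was defined as the supernatant remaining after 21,000xg for 90 min, following pooling of heated aliquots and adjustment to 0.5% NP-40 at 4°C. Before that, crude K562 extract at 1 mg/mL protein in PBS pH 7.4 with 1 mM MgCl2 was treated with 10 μM compound for 30 min and heated for 3 min across 48°C-58°C. Quantification used TMTpro 16plex LC-MS/MS with channel sums equalised, and values are log-two fold changes in thermal stability relative to solvent controls from duplicates.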

pictilisib = compound: CS(=O)(=O)N1CCN(Cc2cc3nc(-c4cccc5[nH]ncc45)nc(N4CCOCC4)c3s2)CC1 [pictilisib]
Method in brief: as §1

crizotinib = compound: C[C@@H](Oc1cc(-c2cnn(C3CCNCC3)c2)cnc1N)c1c(Cl)ccc(F)c1Cl [crizotinib]
Method in brief: as §1

[1] = compound: C[C@H](C1=CC=C(C=C1)C(=O)NC2=C3C=CNC3=NC=C2)N
Method in brief: as §1

duvelisib = compound: C[C@H](Nc1ncnc2nc[nH]c12)c1cc2cccc(Cl)c2c(=O)n1-c1ccccc1 [duvelisib]
Method in brief: as §1

gandotinib = compound: Cc1cc(Nc2cc(CN3CCOCC3)c3nc(C)c(Cc4ccc(Cl)cc4F)n3n2)n[nH]1 [gandotinib]
Method in brief: as §1

tozasertib = compound: Cc1cc(Nc2cc(N3CCN(C)CC3)nc(Sc3ccc(NC(=O)C4CC4)cc3)n2)n[nH]1 [tozasertib]
Method in brief: as §1

doramapimod = compound: Cc1ccc(-n2nc(C(C)(C)C)cc2NC(=O)Nc2ccc(OCCN3CCOCC3)c3ccccc23)cc1 [doramapimod]
Method in brief: as §1

bafetinib = compound: Cc1ccc(NC(=O)c2ccc(CN3CC[C@H](N(C)C)C3)c(C(F)(F)F)c2)cc1Nc1nccc(-c2cncnc2)n1 [bafetinib]
Method in brief: as §1

[2] = compound: Cc1cccc(CC(=O)N2CCc3c2ccc(-c2cn(C)c4ncnc(N)c24)c3F)n1
Method in brief: as §1

Measured: log2 fold change

NAA40 (UniProt Q86UY6)
inactive: lapatinib -0.014 | pictilisib 0.063 | crizotinib -0.04 | [1] -0.12 | duvelisib 0.009 | gandotinib -0.009 | tozasertib 0.112 | doramapimod 0.029 | bafetinib -0.087 | [2] 0.157

NBEAL2 (UniProt Q6ZNJ1)
inactive: lapatinib -0.065 | pictilisib -0.016 | crizotinib -0.069 | [1] -0.006 | duvelisib 0.04 | gandotinib -0.157 | tozasertib 0.02 | doramapimod 0.008 | bafetinib -0.056 | [2] 0.072

NAPB (UniProt Q9H115)
inactive: lapatinib 0.03 | pictilisib -0.002 | crizotinib 0.046 | [1] 0.083 | duvelisib 0.019 | gandotinib -0.057 | tozasertib -0.01 | doramapimod -0.109 | bafetinib 0.09 | [2] -0.155

NCAPG2 (UniProt Q86XI2)
inactive: lapatinib -0.062 | pictilisib -0.006 | crizotinib -0.048 | [1] -0.108 | duvelisib -0.052 | gandotinib -0.011 | tozasertib 0.023 | doramapimod 0.062 | bafetinib -0.074 | [2] 0.143

MVK (UniProt Q03426)
inactive: lapatinib 0.007 | pictilisib 0.003 | crizotinib -0.021 | [1] -0.051 | duvelisib 0.007 | gandotinib -0.01 | tozasertib 0 | doramapimod 0.071 | bafetinib -0.006 | [2] 0.03

NAP1L1 (UniProt P55209)
inactive: lapatinib 0.099 | pictilisib 0.087 | crizotinib -0.008 | [1] 0.159 | duvelisib 0.001 | gandotinib -0.041 | tozasertib -0.012 | doramapimod -0.001 | bafetinib 0.015 | [2] -0.006

MYH10 isoform 3 (UniProt P35580)
inactive: lapatinib -0.064 | pictilisib -0.003 | crizotinib 0.02 | [1] 0.018 | duvelisib 0.019 | gandotinib -0.029 | tozasertib 0.012 | doramapimod -0.007 | bafetinib 0.014 | [2] -0.011

NAGK isoform 2 (UniProt Q9UJ70)
inactive: lapatinib -0.01 | pictilisib 0.001 | crizotinib 0.007 | [1] -0.042 | duvelisib -0.011 | gandotinib 0.05 | tozasertib -0.025 | doramapimod 0.044 | bafetinib 0.048 | [2] 0.017

NCR3LG1 (UniProt Q68D85)
inactive: lapatinib -0.01 | pictilisib -0.055 | crizotinib 0.037 | [1] -0.001 | duvelisib 0.026 | gandotinib 0.011 | tozasertib -0.044 | doramapimod -0.03 | bafetinib 0.037 | [2] -0.044

NAMPT (UniProt P43490)
inactive: lapatinib -0.029 | pictilisib 0.022 | crizotinib 0.017 | [1] -0.013 | duvelisib -0.001 | gandotinib -0.011 | tozasertib -0.002 | doramapimod -0.007 | bafetinib 0.053 | [2] -0.052

MYSM1 (UniProt Q5VVJ2)
inactive: lapatinib 0.078 | pictilisib -0.048 | crizotinib -0.011 | [1] -0.056 | duvelisib 0.014 | gandotinib 0.062 | tozasertib -0.059 | doramapimod 0.04 | bafetinib 0 | [2] 0.054

MYBBP1A isoform 2 (UniProt Q9BQG0)
inactive: lapatinib -0.027 | pictilisib -0.057 | crizotinib -0.077 | [1] 0.031 | duvelisib -0.02 | gandotinib -0.102 | tozasertib -0.01 | doramapimod -0.014 | bafetinib -0.068 | [2] -0.01

MYCBP2 (UniProt O75592)
inactive: lapatinib -0.042 | pictilisib -0.026 | crizotinib -0.07 | [1] -0.028 | duvelisib 0.023 | gandotinib 0.054 | tozasertib 0.023 | doramapimod 0.016 | bafetinib -0.004 | [2] 0.114

MYADM (UniProt Q96S97)
inactive: lapatinib 0.045 | pictilisib -0.033 | crizotinib -0.033 | [1] -0.06 | duvelisib -0.005 | gandotinib 0.021 | tozasertib -0.109 | doramapimod 0.003 | bafetinib 0.04 | [2] 0.049

NCAPH2 (UniProt Q6IBW4)
inactive: lapatinib -0.075 | pictilisib -0.023 | crizotinib -0.04 | [1] -0.01 | duvelisib -0.03 | gandotinib -0.052 | tozasertib 0.058 | doramapimod -0.051 | bafetinib -0.036 | [2] 0.185

NASP (UniProt P49321)
inactive: lapatinib -0.001 | pictilisib 0.014 | crizotinib 0.04 | [1] 0.019 | duvelisib 0.022 | gandotinib -0.004 | tozasertib 0 | doramapimod -0.027 | bafetinib 0.019 | [2] -0.054

NACC1 (UniProt Q96RE7)
inactive: lapatinib -0.032 | pictilisib 0.034 | crizotinib 0.01 | [1] -0.066 | duvelisib -0.002 | gandotinib 0.006 | tozasertib -0.015 | doramapimod -0.011 | bafetinib -0.078 | [2] 0.044

NCBP3 (UniProt Q53F19)
inactive: lapatinib 0.002 | pictilisib -0.107 | crizotinib -0.063 | [1] -0.042 | duvelisib -0.047 | gandotinib -0.092 | tozasertib -0.031 | doramapimod 0.122 | bafetinib -0.124 | [2] 0.082

NAF1 (UniProt Q96HR8)
inactive: lapatinib -0.066 | pictilisib 0.073 | crizotinib 0.068 | [1] 0.028 | duvelisib -0.003 | gandotinib 0.026 | tozasertib -0.036 | doramapimod -0.002 | bafetinib -0.003 | [2] -0.019

Two successive entries out of the list so far, quoted:
NAA40 (UniProt Q86UY6)
inactive: lapatinib -0.014 | pictilisib 0.063 | crizotinib -0.04 | [1] -0.12 | duvelisib 0.009 | gandotinib -0.009 | tozasertib 0.112 | doramapimod 0.029 | bafetinib -0.087 | [2] 0.157

NBEAL2 (UniProt Q6ZNJ1)
inactive: lapatinib -0.065 | pictilisib -0.016 | crizotinib -0.069 | [1] -0.006 | duvelisib 0.04 | gandotinib -0.157 | tozasertib 0.02 | doramapimod 0.008 | bafetinib -0.056 | [2] 0.072

Carrying on.

NCBP2 (UniProt P52298)
inactive: lapatinib 0.018 | pictilisib -0.004 | crizotinib 0.079 | [1] -0.007 | duvelisib 0.007 | gandotinib -0.063 | tozasertib 0.024 | doramapimod -0.008 | bafetinib -0.008 | [2] 0

NCLN (UniProt Q969V3)
inactive: lapatinib -0.023 | pictilisib -0.003 | crizotinib -0.029 | [1] -0.045 | duvelisib -0.014 | gandotinib -0.054 | tozasertib 0.013 | doramapimod -0.004 | bafetinib -0.057 | [2] 0.049

NCSTN (UniProt Q92542)
inactive: lapatinib 0.002 | pictilisib -0.019 | crizotinib -0.041 | [1] -0.216 | duvelisib -0.014 | gandotinib 0.099 | tozasertib -0.025 | doramapimod 0.021 | bafetinib -0.082 | [2] 0.144

NBAS (UniProt A2RRP1)
inactive: lapatinib 0 | pictilisib -0.027 | crizotinib -0.003 | [1] -0.037 | duvelisib -0.032 | gandotinib -0.096 | tozasertib 0.082 | doramapimod 0.003 | bafetinib -0.069 | [2] 0.034

MYO9B (UniProt Q13459)
inactive: lapatinib -0.022 | pictilisib -0.014 | crizotinib -0.029 | [1] -0.045 | duvelisib 0.004 | gandotinib 0.009 | tozasertib 0.045 | doramapimod 0.015 | bafetinib -0.04 | [2] 0.122

NAA25 (UniProt Q14CX7)
inactive: lapatinib -0.01 | pictilisib -0.039 | crizotinib -0.013 | [1] 0.035 | duvelisib -0.019 | gandotinib -0.066 | tozasertib -0.025 | doramapimod -0.016 | bafetinib -0.019 | [2] -0.044

NAT10 (UniProt Q9H0A0)
inactive: lapatinib -0.018 | pictilisib -0.049 | crizotinib -0.054 | [1] 0.026 | duvelisib 0.005 | gandotinib -0.059 | tozasertib 0.007 | doramapimod -0.004 | bafetinib 0.018 | [2] 0.037

NABP2 (UniProt Q9BQ15)
inactive: lapatinib -0.005 | pictilisib 0.17 | crizotinib -0.032 | [1] 0.026 | duvelisib 0.013 | gandotinib 0.027 | tozasertib 0.053 | doramapimod -0.076 | bafetinib -0.131 | [2] -0.03

NCAPH (UniProt Q15003)
inactive: lapatinib -0.012 | pictilisib 0.005 | crizotinib -0.019 | [1] -0.015 | duvelisib 0.046 | gandotinib -0.101 | tozasertib 0 | doramapimod 0.036 | bafetinib -0.013 | [2] 0.028

MVD (UniProt P53602)
inactive: lapatinib -0.009 | pictilisib 0.011 | crizotinib 0.004 | [1] 0.078 | duvelisib 0.01 | gandotinib -0.027 | tozasertib -0.007 | doramapimod -0.039 | bafetinib -0.032 | [2] -0.038

NCOA4 isoform 4 (UniProt Q13772)
inactive: lapatinib 0.005 | pictilisib -0.091 | crizotinib -0.004 | [1] 0.016 | duvelisib 0.018 | gandotinib -0.082 | tozasertib 0.059 | doramapimod 0.015 | bafetinib -0.239 | [2] 0.006
